For assay [1], the target named is β-site amyloid precursor protein-cleaving enzyme 1 (BACE1), Flag-tagged (UniProt P56817). Nature of the assay: co-IP; HEK 293T cells cotransfected with Flag-BACE1 and HA-USP10 for 48 hours; precipitated with anti-Flag magnetic beads; detected with HA rabbit polyclonal antibody.
In assay [2] the target is ubiquitin-specific protease 10 (USP10), HA-tagged (UniProt Q14694). Nature of the assay: co-IP; HEK 293T cells cotransfected with Flag-BACE1 and HA-USP10 for 48 hours; precipitated with anti-HA magnetic beads; western blotting with Flag rabbit polyclonal antibody. (In general: In western blotting, separated proteins are transferred to a membrane and probed.)

Protein sequences, listed by entry. Tags and fused reporters are not part of them. Lines headed by an entry give the natural chain unless they say otherwise; changes in a name come on top. Chains listed by the source or under a name are the forms on record and can include a tag or linker.
UniProt P56817: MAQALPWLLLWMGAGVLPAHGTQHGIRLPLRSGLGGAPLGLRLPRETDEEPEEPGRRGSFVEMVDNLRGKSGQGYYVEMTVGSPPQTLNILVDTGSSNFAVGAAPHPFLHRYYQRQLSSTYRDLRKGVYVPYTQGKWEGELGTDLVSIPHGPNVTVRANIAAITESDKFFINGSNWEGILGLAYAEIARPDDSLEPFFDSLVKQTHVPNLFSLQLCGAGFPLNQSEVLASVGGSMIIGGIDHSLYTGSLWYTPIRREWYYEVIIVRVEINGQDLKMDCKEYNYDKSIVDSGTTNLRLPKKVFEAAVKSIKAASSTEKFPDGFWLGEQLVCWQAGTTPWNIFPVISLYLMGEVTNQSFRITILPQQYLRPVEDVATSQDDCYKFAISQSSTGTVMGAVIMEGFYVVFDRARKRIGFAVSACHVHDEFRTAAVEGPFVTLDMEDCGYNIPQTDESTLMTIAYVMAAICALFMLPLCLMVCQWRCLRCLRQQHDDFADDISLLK
ubiquitin-specific protease 10 (USP10), HA-tagged (Q14694-3, form named): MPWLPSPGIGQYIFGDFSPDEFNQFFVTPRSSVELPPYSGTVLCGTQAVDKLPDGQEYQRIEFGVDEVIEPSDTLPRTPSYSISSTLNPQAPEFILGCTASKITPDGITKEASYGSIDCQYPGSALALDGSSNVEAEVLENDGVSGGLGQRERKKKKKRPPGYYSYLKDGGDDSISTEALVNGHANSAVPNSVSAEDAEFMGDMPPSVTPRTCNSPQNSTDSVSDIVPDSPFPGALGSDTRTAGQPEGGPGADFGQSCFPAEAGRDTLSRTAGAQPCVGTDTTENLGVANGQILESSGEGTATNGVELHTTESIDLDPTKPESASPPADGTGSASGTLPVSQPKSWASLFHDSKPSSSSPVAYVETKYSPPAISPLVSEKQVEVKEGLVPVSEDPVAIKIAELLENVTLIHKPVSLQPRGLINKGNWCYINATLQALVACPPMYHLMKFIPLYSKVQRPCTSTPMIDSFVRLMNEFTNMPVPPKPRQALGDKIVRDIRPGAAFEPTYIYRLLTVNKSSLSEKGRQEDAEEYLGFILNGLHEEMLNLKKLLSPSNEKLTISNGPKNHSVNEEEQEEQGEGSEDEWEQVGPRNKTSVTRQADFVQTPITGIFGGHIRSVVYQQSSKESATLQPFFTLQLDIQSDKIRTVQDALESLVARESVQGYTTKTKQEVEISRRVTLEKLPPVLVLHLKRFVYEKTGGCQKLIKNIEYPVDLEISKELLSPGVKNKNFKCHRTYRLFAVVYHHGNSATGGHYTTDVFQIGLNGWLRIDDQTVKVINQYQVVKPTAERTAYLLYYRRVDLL

No constants are given. Whether binding was seen depends on the method and setting. Binding seen in cells or lysates may run through a third protein. Binding can be weak; no strength is given.

On to “ubiquitin-specific protease 10 (USP10), HA-tagged (from UniProt Q14694-3 1-802) (enzyme)”, for which the binding result in assay [1] is listed as “binds”.

In the case of “β-site amyloid precursor protein-cleaving enzyme 1 (BACE1), Flag-tagged (from UniProt P56817)”, in assay [2], the binding entry is “binds”.

The values are drawn from publication PMC10915996.
